## Percent effect of library compounds

The values are deposited in ChEMBL (CHEMBL3988442, “University of Dundee, Small-Polar-MMV Screening Library” (2021)).

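Growth of Mycobacterium tuberculosis over 3 days (7H9 medium with glucose and tyloxapol); the read-out is not stated. Concentration: 50 µM. The record gives no direction; compounds that gave an IC50 in retests scored well above the rest, so higher reads as more growth inhibition. Of about 69,000 compounds tested this way, about 760 (1.1%) reached 50% or more in at least one test.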

The filed quantity is “Percent Effect” (%).
The controls that fix the scale are not given in the record; negative values are as filed.
This is an unselected part of the compounds tested.
Two or more numbers in one place are separate tests of the same structure; such repeats can differ widely.

- CCCN(C(=O)CN1CCn2c(nnc2C2CC2)C1)C1=CCCCC1 | -30.82%
- NC(=O)C1(Cc2ccc(-c3ccccc3)cc2)CCCNC1 (stereo unspecified) | 12.63%
- O=C(O)C(F)(F)F.[H][C@@]12CN(C(=O)c3ccco3)C[C@@]1([H])N(Cc1cccnc1)C(=O)CO2 | -5.414% & -2.88%
- O=C(O)C(F)(F)F.[H][C@]12CCN(S(=O)(=O)c3cccs3)C[C@@]1([H])OCCN(C(C)C)C2 | -8.168%
- CNC(=O)CN(C)c1cncc(OCc2ccccc2)n1 | 13.57% & 3.841%
- CN1CCN(C)C2(CCN(C(=O)CC(F)(F)F)CC2)C1=O | -10.78%
- CN(C)CCCN(Cc1ccco1)Cc1ccnn1C1CCCCO1.O=C(O)CC(O)(CC(=O)O)C(=O)O (stereo unspecified) | -4.171%
- CN1CCCC(N(C)C(=O)c2ccc(NC(=O)c3ccc[nH]3)cc2)C1 (stereo unspecified) | -6.481% & 1.728%
- O=C(Cn1ccnc1)N(CCO)CCSc1ccc(Cl)cc1 | 1.956%
- Cc1ccc(Cl)cc1N1CCC(CNC(=O)Cn2cccn2)C1 (stereo unspecified) | -4.016%
- COC(=O)CC(c1ccc(OC)c(OC)c1)c1oc(C)cc(=O)c1O (stereo unspecified) | -35.79%
- O=C(O)c1c[nH]c2cc(NS(=O)(=O)c3cc(F)ccc3Cl)ccc12 | 20.76%
- Cc1noc(C)c1CN(C)CC(c1cccs1)N1CCOCC1 (stereo unspecified) | -18.19% & -1.228%
- Cc1cc(C(=O)NC(C)c2nnn[nH]2)c2ccc(C)c(C)c2n1 (stereo unspecified) | -38.99%
- CCOc1ccnc(N2CCN(C(=O)CCc3ccncc3)CC2)n1 | -3.947%
- COCCN(C/C=C/c1ccccc1)Cc1nccs1 | 14.41%
- O=C(O)C(F)(F)F.O=C(c1ccccc1F)N1CCC2(CC1)CC(Oc1ccccn1)CO2 (stereo unspecified) | -10.26%
- Cc1cc(NC(C)C(=O)NCc2ccccc2)nc(-c2ccncc2)n1 (stereo unspecified) | -12.89% & -1.104%
- COc1cccc(OC)c1-c1c[nH]c(C)n1 | -5.569%
- CN1CCC(N(C)c2ccccc2CNCc2ccco2)CC1 | 49.03%
- c1cnnc(N2CCCC2CNCc2nc3ccccc3o2)c1 (stereo unspecified) | 55.87%
- O=C(CNc1cccc(S(=O)(=O)C(F)F)c1)Nc1ccccc1 | -6.102%
- Cc1nc(NC2CCCCC2)cc(C2CCCNC2)n1.Cl (stereo unspecified) | -12.92%
- COc1ccc(CN2CCCn3cnc(COC(C)C)c3C2)cc1.O=C(O)C(F)(F)F | -10.03%
- COc1ccc(OC)c2c(C)cc(N(C)CCCO)nc12 | 30.84%
- [H][C@@]12CS(=O)(=O)C[C@]1([H])N(Cc1cnn(-c3cccc(C)c3)c1)CCN2C | -18.05%
- CN(C)c1ncnc2c1CCN(S(=O)(=O)c1cccc3nsnc13)C2 | -1.038%
- CC(CN1CCOCC1)NC(=O)NCCc1ccc(Cl)s1 (stereo unspecified) | 5.428%